No constants are given. Whether binding was seen depends on the method and setting. In cells and extracts the contact can be indirect. Some binding calls cover weakened binding; strength is not graded here. For part of these data: Where a sequence is shown, tags or fusion partners need not be part of it.
Columns and labels:
Assay in all cases: co-IP; lysates (RIPA buffer) of CSIAN cells co-transfected with Flag-tagged CSB and a Myc-tagged protein, 24 hr post transfection; anti-c-myc agarose overnight; Western blot with anti-Flag
[1] = target: T1, Myc-tagged SFPQ (human) (UniProt P23246)
T1 sequence: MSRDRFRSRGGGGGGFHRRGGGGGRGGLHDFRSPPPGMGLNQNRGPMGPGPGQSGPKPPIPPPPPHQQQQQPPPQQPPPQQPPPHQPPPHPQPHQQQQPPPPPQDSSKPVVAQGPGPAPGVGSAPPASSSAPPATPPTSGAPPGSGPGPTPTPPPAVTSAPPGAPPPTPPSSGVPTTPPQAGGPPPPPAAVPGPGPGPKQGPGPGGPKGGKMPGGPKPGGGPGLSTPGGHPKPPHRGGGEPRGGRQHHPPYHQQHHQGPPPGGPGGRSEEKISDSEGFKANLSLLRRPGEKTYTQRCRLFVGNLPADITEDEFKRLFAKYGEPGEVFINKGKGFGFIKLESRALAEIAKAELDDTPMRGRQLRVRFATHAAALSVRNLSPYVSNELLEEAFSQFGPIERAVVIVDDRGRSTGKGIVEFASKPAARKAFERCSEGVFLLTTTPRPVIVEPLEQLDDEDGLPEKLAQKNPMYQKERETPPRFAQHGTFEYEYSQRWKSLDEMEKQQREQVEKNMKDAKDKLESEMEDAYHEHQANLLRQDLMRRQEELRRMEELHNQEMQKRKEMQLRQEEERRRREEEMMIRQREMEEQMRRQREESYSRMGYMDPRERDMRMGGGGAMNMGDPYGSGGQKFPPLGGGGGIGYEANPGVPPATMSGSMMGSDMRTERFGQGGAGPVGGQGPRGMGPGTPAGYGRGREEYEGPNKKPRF

Protein sequences, listed by entry. Tags and fused reporters are not part of them.
UniProt Q93009: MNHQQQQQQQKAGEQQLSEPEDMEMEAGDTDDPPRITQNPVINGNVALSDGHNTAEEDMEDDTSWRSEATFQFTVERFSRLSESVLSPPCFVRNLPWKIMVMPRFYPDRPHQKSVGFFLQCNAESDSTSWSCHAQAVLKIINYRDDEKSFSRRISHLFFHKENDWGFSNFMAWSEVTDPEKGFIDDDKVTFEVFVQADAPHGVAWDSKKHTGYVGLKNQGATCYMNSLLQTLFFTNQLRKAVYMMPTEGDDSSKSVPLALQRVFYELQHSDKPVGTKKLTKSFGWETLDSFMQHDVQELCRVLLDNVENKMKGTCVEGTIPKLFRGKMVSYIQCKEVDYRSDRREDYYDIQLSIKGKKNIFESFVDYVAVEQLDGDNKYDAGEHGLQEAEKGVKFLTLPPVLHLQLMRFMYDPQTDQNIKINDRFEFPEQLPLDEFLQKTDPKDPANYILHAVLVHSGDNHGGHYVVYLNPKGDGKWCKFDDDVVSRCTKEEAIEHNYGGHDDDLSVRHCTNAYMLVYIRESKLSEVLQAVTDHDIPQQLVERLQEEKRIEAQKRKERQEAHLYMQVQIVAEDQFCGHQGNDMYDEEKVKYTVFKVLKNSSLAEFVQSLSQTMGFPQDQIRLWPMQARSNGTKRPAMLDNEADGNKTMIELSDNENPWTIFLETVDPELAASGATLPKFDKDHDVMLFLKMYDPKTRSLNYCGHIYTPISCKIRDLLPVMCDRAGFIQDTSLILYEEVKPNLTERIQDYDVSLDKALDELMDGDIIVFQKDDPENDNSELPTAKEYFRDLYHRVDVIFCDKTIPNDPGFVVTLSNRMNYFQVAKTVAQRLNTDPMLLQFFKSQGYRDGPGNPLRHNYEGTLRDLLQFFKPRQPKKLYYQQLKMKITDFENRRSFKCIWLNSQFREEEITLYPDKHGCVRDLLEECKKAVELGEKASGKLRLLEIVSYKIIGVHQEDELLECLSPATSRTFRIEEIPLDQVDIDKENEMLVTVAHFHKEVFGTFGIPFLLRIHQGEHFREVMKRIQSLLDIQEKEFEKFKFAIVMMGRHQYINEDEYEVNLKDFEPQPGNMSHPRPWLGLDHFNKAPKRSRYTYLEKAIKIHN
UniProt Q86VP6: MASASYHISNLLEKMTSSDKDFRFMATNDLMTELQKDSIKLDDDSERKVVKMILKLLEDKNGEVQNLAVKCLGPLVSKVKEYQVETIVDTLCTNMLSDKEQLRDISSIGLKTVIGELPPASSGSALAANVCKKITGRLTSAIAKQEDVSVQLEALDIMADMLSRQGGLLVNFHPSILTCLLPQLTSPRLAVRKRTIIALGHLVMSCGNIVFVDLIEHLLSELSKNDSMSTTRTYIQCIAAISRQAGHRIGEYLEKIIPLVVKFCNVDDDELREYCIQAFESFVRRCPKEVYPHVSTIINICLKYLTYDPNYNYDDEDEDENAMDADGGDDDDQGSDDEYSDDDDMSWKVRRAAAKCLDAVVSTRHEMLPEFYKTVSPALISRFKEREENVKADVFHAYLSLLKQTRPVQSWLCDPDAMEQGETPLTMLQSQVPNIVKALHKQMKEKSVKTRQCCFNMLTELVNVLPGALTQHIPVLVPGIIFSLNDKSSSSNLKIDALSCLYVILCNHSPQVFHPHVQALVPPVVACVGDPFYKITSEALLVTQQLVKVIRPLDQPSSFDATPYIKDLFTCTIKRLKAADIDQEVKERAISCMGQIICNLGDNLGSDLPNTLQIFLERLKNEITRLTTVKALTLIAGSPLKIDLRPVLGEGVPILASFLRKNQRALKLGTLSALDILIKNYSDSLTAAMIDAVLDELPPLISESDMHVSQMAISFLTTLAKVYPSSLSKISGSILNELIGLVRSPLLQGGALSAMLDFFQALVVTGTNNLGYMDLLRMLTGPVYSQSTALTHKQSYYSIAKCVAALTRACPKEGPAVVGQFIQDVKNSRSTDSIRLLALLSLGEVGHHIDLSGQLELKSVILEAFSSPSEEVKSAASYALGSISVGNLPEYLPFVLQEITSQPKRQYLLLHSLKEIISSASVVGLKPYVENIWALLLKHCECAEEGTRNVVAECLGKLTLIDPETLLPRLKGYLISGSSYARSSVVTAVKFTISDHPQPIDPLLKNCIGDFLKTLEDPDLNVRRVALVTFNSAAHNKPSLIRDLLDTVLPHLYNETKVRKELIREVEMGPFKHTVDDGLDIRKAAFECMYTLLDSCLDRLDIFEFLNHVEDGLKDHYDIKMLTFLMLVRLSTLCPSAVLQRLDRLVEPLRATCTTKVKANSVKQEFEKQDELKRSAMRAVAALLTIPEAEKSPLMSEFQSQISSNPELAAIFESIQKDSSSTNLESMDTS
UniProt Q09028: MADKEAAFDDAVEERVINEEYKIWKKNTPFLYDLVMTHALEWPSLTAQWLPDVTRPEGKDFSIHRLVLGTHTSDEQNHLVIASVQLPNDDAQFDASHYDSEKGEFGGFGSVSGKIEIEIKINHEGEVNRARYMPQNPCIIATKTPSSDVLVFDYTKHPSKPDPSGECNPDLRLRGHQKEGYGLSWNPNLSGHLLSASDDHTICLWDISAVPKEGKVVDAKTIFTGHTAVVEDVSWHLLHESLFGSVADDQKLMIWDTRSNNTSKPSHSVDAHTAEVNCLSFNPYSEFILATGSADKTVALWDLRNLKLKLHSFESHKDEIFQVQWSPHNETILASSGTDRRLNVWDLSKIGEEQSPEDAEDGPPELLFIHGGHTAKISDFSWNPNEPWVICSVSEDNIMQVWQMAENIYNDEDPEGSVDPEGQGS
UniProt O94776: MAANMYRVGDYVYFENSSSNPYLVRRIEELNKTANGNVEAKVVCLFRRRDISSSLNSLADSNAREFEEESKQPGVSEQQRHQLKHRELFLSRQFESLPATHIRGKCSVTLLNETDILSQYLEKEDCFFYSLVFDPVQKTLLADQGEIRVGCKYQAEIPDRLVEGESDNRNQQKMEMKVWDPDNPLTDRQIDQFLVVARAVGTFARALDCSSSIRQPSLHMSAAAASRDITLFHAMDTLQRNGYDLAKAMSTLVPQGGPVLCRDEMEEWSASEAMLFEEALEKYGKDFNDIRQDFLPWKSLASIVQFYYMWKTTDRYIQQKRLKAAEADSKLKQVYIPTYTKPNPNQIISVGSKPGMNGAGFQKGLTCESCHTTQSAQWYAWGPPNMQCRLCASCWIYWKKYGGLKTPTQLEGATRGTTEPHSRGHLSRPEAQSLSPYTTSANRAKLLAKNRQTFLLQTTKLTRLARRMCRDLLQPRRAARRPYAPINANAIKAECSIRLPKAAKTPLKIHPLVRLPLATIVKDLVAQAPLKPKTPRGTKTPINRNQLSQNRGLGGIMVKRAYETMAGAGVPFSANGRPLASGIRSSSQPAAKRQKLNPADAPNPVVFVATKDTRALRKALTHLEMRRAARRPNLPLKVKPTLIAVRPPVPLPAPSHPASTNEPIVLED
UniProt O43242: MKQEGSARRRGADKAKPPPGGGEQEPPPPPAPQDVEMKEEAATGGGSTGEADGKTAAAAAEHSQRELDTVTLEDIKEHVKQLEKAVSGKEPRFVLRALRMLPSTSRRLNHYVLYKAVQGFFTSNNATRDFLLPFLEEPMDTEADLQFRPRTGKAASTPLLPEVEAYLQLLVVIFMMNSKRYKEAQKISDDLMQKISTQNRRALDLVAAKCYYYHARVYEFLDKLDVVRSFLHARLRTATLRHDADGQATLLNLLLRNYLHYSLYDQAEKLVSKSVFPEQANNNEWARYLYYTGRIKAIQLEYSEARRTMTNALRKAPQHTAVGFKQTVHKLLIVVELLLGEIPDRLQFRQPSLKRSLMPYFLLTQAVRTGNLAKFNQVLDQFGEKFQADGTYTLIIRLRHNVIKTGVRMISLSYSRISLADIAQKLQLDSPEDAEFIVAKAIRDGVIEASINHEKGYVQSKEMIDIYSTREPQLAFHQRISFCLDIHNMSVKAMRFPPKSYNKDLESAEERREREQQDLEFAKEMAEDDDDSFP
UniProt Q00839: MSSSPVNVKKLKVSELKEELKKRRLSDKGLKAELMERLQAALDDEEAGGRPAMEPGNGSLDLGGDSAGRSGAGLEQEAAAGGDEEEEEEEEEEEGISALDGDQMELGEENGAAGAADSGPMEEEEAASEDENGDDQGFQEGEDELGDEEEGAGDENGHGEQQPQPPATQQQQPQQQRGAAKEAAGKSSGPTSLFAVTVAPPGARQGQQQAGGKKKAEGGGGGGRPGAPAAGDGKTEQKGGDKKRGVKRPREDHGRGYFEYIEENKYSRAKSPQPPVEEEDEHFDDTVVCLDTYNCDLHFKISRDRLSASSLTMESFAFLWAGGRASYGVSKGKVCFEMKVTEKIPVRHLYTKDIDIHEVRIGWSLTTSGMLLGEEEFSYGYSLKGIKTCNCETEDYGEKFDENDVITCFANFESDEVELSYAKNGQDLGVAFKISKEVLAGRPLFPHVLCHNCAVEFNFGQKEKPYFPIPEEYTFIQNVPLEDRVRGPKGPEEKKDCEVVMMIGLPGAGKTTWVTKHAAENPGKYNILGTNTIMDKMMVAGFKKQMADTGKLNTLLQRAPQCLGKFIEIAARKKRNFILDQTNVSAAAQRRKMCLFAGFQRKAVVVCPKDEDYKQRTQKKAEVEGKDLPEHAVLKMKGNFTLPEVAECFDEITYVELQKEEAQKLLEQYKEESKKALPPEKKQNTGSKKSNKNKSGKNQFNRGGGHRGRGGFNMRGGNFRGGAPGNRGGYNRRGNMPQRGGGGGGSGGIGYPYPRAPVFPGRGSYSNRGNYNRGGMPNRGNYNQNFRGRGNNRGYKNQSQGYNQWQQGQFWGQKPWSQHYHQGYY
UniProt Q03468: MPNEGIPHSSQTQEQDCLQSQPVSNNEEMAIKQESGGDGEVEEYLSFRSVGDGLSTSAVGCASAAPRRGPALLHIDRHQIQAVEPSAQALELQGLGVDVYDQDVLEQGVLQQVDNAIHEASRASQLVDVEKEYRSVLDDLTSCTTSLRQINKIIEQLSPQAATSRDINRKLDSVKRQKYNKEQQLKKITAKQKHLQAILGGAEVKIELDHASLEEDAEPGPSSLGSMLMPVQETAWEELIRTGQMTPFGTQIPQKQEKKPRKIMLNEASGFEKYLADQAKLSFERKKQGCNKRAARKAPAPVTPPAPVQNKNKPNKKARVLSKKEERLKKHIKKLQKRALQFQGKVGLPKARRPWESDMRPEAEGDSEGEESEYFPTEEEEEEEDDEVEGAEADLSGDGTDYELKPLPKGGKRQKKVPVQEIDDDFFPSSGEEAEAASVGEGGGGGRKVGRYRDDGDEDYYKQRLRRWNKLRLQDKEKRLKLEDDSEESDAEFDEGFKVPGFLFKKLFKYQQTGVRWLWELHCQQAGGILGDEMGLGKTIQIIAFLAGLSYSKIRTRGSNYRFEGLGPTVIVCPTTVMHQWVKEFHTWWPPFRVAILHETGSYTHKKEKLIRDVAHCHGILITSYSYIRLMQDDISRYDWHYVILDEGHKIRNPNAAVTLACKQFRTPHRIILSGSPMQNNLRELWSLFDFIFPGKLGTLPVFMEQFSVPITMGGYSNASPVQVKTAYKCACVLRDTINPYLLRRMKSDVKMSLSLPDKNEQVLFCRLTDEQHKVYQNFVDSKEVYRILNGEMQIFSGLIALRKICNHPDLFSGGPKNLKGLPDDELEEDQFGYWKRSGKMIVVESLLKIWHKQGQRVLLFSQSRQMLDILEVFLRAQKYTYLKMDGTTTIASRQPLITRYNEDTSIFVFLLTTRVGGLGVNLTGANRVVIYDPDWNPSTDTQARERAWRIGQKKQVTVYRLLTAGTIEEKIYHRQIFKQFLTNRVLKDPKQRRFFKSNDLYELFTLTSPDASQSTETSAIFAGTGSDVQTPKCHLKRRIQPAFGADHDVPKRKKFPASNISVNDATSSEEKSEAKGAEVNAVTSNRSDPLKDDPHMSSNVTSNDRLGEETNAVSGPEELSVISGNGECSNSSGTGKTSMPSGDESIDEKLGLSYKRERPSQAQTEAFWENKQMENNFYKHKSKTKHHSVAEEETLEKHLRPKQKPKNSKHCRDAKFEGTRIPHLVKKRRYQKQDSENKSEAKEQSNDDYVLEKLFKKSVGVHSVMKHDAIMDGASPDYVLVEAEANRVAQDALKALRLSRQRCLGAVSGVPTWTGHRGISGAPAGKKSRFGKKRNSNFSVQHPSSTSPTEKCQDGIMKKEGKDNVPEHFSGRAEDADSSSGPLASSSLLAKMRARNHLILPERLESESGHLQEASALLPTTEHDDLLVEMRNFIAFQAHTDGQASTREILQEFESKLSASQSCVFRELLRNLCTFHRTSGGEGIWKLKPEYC

[2] = target: Myc-tagged USP7 (human) (UniProt Q93009)
[3] = target: Myc-tagged CAND1 (human) (UniProt Q86VP6)
[4] = target: Myc-tagged RBBP4 (human) (UniProt Q09028)
[5] = target: T2, Myc-tagged EFTUD2 (human) (UniProt Q15029)
T2 sequence: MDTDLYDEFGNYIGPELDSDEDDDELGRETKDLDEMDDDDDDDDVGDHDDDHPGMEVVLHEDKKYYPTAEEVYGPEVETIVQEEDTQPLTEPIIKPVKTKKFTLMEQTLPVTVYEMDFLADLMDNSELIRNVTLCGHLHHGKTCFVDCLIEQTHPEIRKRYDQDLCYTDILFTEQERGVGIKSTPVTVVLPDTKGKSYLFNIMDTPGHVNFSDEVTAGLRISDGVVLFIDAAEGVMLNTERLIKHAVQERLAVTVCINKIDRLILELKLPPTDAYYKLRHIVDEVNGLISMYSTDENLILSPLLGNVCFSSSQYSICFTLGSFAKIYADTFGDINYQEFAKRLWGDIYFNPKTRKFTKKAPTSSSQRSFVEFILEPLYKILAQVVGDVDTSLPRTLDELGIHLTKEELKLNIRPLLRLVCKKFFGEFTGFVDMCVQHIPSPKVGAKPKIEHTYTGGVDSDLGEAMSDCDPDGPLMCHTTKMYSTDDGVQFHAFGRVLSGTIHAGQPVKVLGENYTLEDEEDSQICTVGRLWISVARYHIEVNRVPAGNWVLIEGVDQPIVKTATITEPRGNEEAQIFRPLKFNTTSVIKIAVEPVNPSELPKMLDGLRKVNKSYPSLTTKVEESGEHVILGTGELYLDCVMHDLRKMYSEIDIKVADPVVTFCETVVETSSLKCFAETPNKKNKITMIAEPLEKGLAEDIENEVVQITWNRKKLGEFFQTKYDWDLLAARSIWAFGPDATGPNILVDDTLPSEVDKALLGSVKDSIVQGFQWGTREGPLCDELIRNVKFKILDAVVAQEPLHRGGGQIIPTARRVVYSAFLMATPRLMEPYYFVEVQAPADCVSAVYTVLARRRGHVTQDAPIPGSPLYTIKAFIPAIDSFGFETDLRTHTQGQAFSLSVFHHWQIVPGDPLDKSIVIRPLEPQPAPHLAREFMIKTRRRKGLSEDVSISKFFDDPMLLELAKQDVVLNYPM

[6] = target: Myc-tagged MTA2 (human) (UniProt O94776)
[7] = target: Myc-tagged PSMD3 (human) (UniProt O43242)
[8] = target: Myc-tagged HNRNPU (human) (UniProt Q00839)
[9] = target: Myc-tagged SMARCA2 (human) (UniProt P51531)

With “Flag-tagged CSB (from UniProt Q03468 1-1493)” the binding [1] was “binds”, the binding [2] was “binds” and the binding [3] was “binds”. For the same substance, the binding [4] was “binds”, the binding [5] was “no binding” and the binding [6] was “binds”. The binding [7] was “binds”, the binding [8] was “binds” and the binding [9] was “binds weakly”.
